Results taken from US20080057516A1 (published 2008).
These are yes or no findings as the source states them, for the method shown. Some binding calls cover weakened binding; strength is not graded here.

T1: Syndecan-3 on rat cells (glioma C6 cell line; E17 hippocampal neurons) (rat), P33671
T1 chain: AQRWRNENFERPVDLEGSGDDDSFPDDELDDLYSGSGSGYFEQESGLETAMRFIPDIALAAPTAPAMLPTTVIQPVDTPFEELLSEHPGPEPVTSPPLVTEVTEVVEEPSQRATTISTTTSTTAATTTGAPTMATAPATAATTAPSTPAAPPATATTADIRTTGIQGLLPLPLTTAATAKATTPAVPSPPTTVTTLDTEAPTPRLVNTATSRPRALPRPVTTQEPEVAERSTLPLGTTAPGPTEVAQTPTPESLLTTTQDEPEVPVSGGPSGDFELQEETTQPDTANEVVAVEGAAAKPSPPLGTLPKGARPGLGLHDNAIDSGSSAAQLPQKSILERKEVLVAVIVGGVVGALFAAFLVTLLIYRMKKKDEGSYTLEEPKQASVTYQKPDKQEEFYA

B1: Persephin (PSPN) (ligand, UniProt O60542 61-156, looked up)
chain: ALSGPCQLWSLTLSVAELGLGYASEEKVIFRYCAGSCPRGARTQHGLALARLQGQGRAHGGPCCRPTRYTDVAFLDDRHRWQRLPQLSAAACGCGG
B2: Glial cell line-derived neurotrophic factor (GDNF) (ligand, UniProt P39905 78-211, looked up)
chain: SPDKQMAVLPRRERNRQAAAANPENSRGKGRRGQRGKNRGCVLTAIHLNVTDLGLGYETKEELIFRYCSGSCDAAETTYDKILKNLSRNRRLVSDKVGQACCRPIAFDDDLSFLDDNLVYHILRKHSAKRCGCI
notes: Immobilised on an aminosilane cuvette for SPR, or coated on plastic, glass or filters for the cell assays; also called wtGDNF; unlabeled (Cold) GDNF
B3: Neurturin (NRTN) (ligand, UniProt Q99748 96-197, looked up)
chain: ARLGARPCGLRELEVRVSELGLGYASDETVLFRYCAGACEAAARVYDLGLRRLRQRRRLRRERVRAQPCCRPTAYEDEVSFLDAHSRYHTVHELSARECACV
B4: Artemin (ARTN) (ligand, UniProt Q5T4W7 108-220, looked up)
chain: AGGPGSRARAAGARGCRLRSQLVPVRALGLGHRSDELVRFRFCSGSCRRARSPHDLSLASLLGAGALRPPPGSRPVSQPCCRPTRYEAVSFMDVNSTWRTVDRLSATACGCLG
B5: HB-GAM (heparin-binding growth-associated molecule), P63090 33-168 (ligand)
chain: GKKEKPEKKVKKSDCGEWQWSVCVPTSGDCGLGTREGTRTGAECKQTMKTQRCKIPCNWKKQFGAECKYQFQAWGECDLNTALKTRTGSLKRALHNADCQKTVTISKPCGKLTKPKPQAESKKKKKEGKKQEKMLD
modifications: here or on the partner: heparan sulfate (HS) chains; attachment residues not stated

How the values were obtained:
[1] = target: Syndecan-3 ectodomain purified from early postnatal rat brain (rat) (UniProt P33671); assay: SPR (IAsys optical biosensor): PSPN immobilized on the aminosilane cuvette, syndecan-3 ectodomain (S3) in solution
[2] = target: Syndecan-3 ectodomain purified from early postnatal rat brain (rat) (UniProt P33671); assay: SPR (IAsys), GFLs immobilised, syndecan-3 ectodomain in solution; patent's own conclusion from the same IAsys experiment: weak binding, not quantified
[3] = target: Syndecan-3 ectodomain purified from early postnatal rat brain (rat) (UniProt P33671); assay: SPR (IAsys), legend of FIG. 2
[4] = target: Syndecan-3 ectodomain purified from early postnatal rat brain (rat) (UniProt P33671); assay: conclusion from SPR and cross-linking experiments
[5] = target: Syndecan-3 ectodomain purified from early postnatal rat brain (rat) (UniProt P33671); assay: SPR (IAsys), GFLs immobilised, syndecan-3 ectodomain in solution
[6] = target: T1, Syndecan-3 on rat cells (glioma C6 cell …); assay: competition with 125I-GDNF on C6 cells; 150-fold molar excess; cross-linking and anti-syndecan-3 immunoprecipitation; conditions: remark: other sources report otherwise

Binder	binding [1]	binding [2]	binding [3]	binding [4]	binding [5]	binding [6]
B1	binds	binds				
B2			binds	binds	binds	
B3			binds	binds	binds	
B4			binds	binds	binds	
B5						binds
